Results from article PMC7324386.

Tests used:
[1] = biological target: CDC48C (yeast two-hybrid fusion) (Arabidopsis thaliana); experiment: two-hybrid; GAL4 system (pGBKT7, pGADT7), Y187 and Y2HGold mated, diploid yeasts on QDO medium (SD-Leu/-Trp/-His/-Ade), 30 °C, 3 days
[2] = biological target: CDC48B (yeast two-hybrid fusion) (Arabidopsis thaliana); experiment: as above

Binder	binding [1]	binding [2]
PUX5 (yeast two-hybrid fusion) (protein, UniProt Q7Y175 1-421) MATETNENLINSFIEITSSSREEANFFLESHTWNLDAAVSTFLDNDAAAAAEPNPTGPPPPSSTIAGAQSPSQSHSPDYTPSETSPSPSRSRSASPSSRAAPYGLRSRGGAGENKETENPSGIRSSRSRQHAGNIRTFADLNRSPADGEGSDSDEANEYYTGGQKSGMMVQDPKKVKDVDELFDQARQSAVDRPVEPSRSASTSFTGAARLLSGEAVSSSPQQQQQEQPQRIMHTITFWLNGFTVNDGPLRGFSDPENAAFMNSISRSECPSELEPADKKIPVHVDLVRRGENFTEPPKPKNPFQGVGRTLGASGSGSSSAPQASSAPMNVAPAPSRGLVVDPAAPTTSIQLRLADGTRLVSRFNNHHTVRDVRGFIDASRPGGSKEYQLLTMGFPPKQLTELDQTIEQAGIANAVVIQKF	binds	binds
PUX4 (yeast two-hybrid fusion) (protein, UniProt Q8RWU7 1-303) MSSKDKKPSKPSSSRGGIRTLSDLNRRSGPDSDSDSDGPQEYYTGGEKSGMLVQDPSKKDDVDEIFNQARQLGAVEGPLEPPPSSRSFTGTGRLLSGENVPTGNQQPEPVVHNIVFWSNGFTIDDGPLRKLDDPENASFLESIRKSECPKELEPADRRAPVHVNLMRKEEKCPERQKRRVSFQGVGRTLGGSNEGSGSSSPVAPDSAPIPIQTEPAPSQSLVIDETVPTTSIQLRLADGTRLVAKFNHHHTVNDIRGFIDSSRPGASLNYQLQTMGFPPKPLTDLTQTIEEAGLANSVVLQKF	binds	binds

Results, then the binder that gave them:

binding [1]	binding [2]	Binder
binds	binds	UFD1C (yeast two-hybrid fusion) (protein, UniProt Q8W570 1-311) MFYDGYAYHGTTFEQTYRCYPSSFIDKPQIESGDKIIMPPSALDRLASLQIDYPMLFELRNASTDSFSHCGVLEFIAEEGVIYIPYWMMQNLLLQEGDMVRVRNVTLPKGTYVKLQPHTTDFLDIANPKAILETALRNYSCLTVGDSIMVPYNNKKYFIDIVEAKPSNGISIIETDCEVDFAPPLDYKEPERPVAPAPAKAKEVDVAEAEPKFNPFTGSGRRLDGRPLSYEPQPGAANSNGQSHPVASSSSSGSEKATQQNRGKLVFGSNVERSTKETTKVGAGKDRKQEEEAEKEAKFQAFSGKKYSLRG
binds weakly	binds	UFD1B (yeast two-hybrid fusion) (protein, UniProt Q9SJV0 1-340) MVLRFCCHLLTYSVSLLPPITMFFDGYHYHGTTFEQSYRCYPASFIDKPQLESGDKIIMPPSALDRLASLHIDYPMLFELRNAGIERVTHCGVLEFIAEEGMIYMPYWMMQNLLLQEGDIVRVRNVTLPKGTYVKLQPHTTDFLDISNPKAILETALRNYSCLTSGDSIMVPYNNKKYFIDIVETKPANAISIIETDCEVDFAPPLDYKEPERPTAPSAAKGPAKAEEVVDEPEPKFNPFTGSGRRLDGRPLAYEPAPASSSKGKQPVVANGNGQSSVASSSEKATRAQGKLVFGANGNRAPKEAAPKVGAAKETKKEEQEKKDEPKFQAFSGKKYSLRG

No constants are given. Whether binding was seen depends on the method and setting. Binding can be weak; no strength is given. Tags and fused reporters may be left off the sequences shown.
